Percent effect of library compounds

The values are deposited in ChEMBL (CHEMBL3988442, “University of Dundee, Small-Polar-MMV Screening Library” (2021)).

Each number is a percent effect as filed. The controls that fix the scale are not given in the record; negative values are as filed. This is an unselected part of the compounds tested.

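Assay of Toxoplasma gondii numbers, read through their beta-galactosidase reporter with a colour substrate. Compounds at 50 µM. Higher reads as fewer parasites (inferred from which compounds were picked for retests). Size under these conditions: about 18,000 compounds, about 170 of them at 50% or above in at least one test.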

structure,Percent Effect
CCOC(=O)c1nn(CC)c2c1CNCC2,2.55%
COCCc1nc(CC(C)N(C)C)n(CCO)n1 (stereo not given),-7.99%
COCC(=O)N1CCC(Nc2cncc(Br)c2)CC1,0.5239%
Cc1nc[nH]c1CN1CCCOC(CN2CCCC2)C1 (stereo not given),-4.729%
CCn1nccc1CN1CCOCC2(CCOCC2)C1,-10.26%
Cc1ncsc1C(=O)NC1CCCCNC1=O (stereo not given),12.8%
NCC(=O)N1CCCC(COc2ccc(F)cc2)C1 (stereo not given),3.058%
CC(Sc1nnc(-c2ccccc2F)n1C)C(N)=O (stereo not given),-0.9447%
CCC1(C(=O)NCC2CCCNC2)CCCC1 (stereo not given),-4.689%
CN(CC1CCC1)C(=O)CCc1ccccn1,-0.3188%
CCC(NC(=O)c1cccs1)c1nc(C)c[nH]1 (stereo not given),-0.0514%
O=C1CN(C(=O)c2ccccn2)c2ccncc2N1,-8.04%
Cn1ncc(CN)c1C(F)(F)F,22.03%
O=C(NCCNC(=O)C1CCCC1)c1ccccc1O,-0.8531%
COC(=O)CSc1nnc2ccccn12,-23.34%
CC(=O)c1nc(N)sc1C,-7.225%
CC(C)(N)c1nnc2n1CCCC2,-15.77%
Cn1nnnc1NCc1cccc(Cl)c1Cl,-5.332%
CN1CCC(CC(=O)NCc2ccccc2)CC1,4.493%
Cc1ccc(CC(=O)N2CCC[C@H]2CO)cc1O,18.46%
CN1CCO[C@@H]2CCNC[C@@H]21,18.47%
Cc1cccc(NC(=O)C(C)N)c1 (stereo not given),0.9011%
O=C(CCn1cncn1)Nc1nc2ccccc2[nH]1,-4.636%
N[C@@H]1CC[C@@H](NC(=O)c2cc3sccc3[nH]2)C1,-15.31%
COc1ccc(CN2C[C@H](N(C)C)C[C@H]2CO)cn1,1.401%
NC(=O)CCC(=O)Nc1ccc(F)cc1,-6.454%
NCc1cc(Cl)ccn1,26.13%
CCCC(=O)NCC1CCCNC1 (stereo not given),7.352%
N#CC(Cc1c(F)cccc1F)C(N)=O (stereo not given),-9.986%
O=C(NCC1COCCO1)c1cnc2ccccc2c1 (stereo not given),1.218%
CN(CCN1CCCC1=O)C(=O)c1ccc(C#N)cc1,-15.84%
COC(=O)CN(CCc1ccccc1)C(C)=O,-2.27%
COc1nc(C)cc(C)c1CN,-0.2372%
NC(=O)CCc1nc(-c2cccnc2)no1,-12.33%
CC(=O)N1CCN(C2CC(N)C2)CC1 (stereo not given),-5.193%
Cc1ccccc1CC(=O)NCC(F)(F)F,-13.95%
CCOc1ncccc1C(=O)Nc1nnc[nH]1,-1.422%
Cc1nc(CN2CC[C@H]3NCCC[C@]3(CO)C2)co1,-11.56%
CCCOc1nc(C)cc(COC)c1C(N)=O,4.663%
CCc1noc(CN2CCSCC2)n1,1.839%
CC1CCCCN1C(=O)CN(C)CCO (stereo not given),10.44%
CC(CNC(=O)c1ccncc1)c1ccccc1 (stereo not given),6.748%
CCN(CC)c1ncccc1CNC(=O)C1CCC1,4.357%
COc1c(C(=O)N2CCOCC2)sc2ccc(F)cc12,5.357%
CC1COCCN1CCNS(C)(=O)=O (stereo not given),-4.94%
NC1(c2noc(C(F)(F)F)n2)CCCC1,24.31%
O=C(NC1CCOCC1)c1ccc(F)cc1,0.3657%
CNC(=O)CC(C)N(C)C(=O)c1ccc(O)c(OC)c1 (stereo not given),12.13%
COC(=O)CNC(=O)c1ccc(C)c(-n2cccc2)c1,0.1992%
CC(NCC(C)(C)C(N)=O)c1ccc2c(c1)OCO2 (stereo not given),0.8585%
CC(NC(=O)Nc1cccnn1)c1ccncc1 (stereo not given),-3.49%
NCC1(CO)CC(c2ccccc2)C1 (stereo not given),4.433%
Cc1cc(NC(=O)NCCO)nn1-c1cccc(Cl)c1,3.068%
O=C(NCCOCCO)c1cn2ccsc2n1,19.68%
Cn1c(CN)nc2cc(F)ccc21,-9.48%
COCCNC(=O)C(C)NS(=O)(=O)c1ccc(C)cc1 (stereo not given),-2.32%
Cc1cccc(NC(=O)N(C)C(CO)C(C)(C)C)n1 (stereo not given),-1.519%
CCSCCNC(=O)c1ccccc1C1CCNC1 (stereo not given),1.357%
NCCC1CCN(c2ccncc2)CC1,11.35%
Cc1cc(C)nc(NCC2(CS(C)(=O)=O)CC2)n1,-17.22%
OCC1CN(C2CCC2)CC12CCN(C1CCC1)CC2 (stereo not given),20.53%
Cc1nc(CN2CCCNCC2)oc1C,26.32%
Nc1cccnc1N1CCC(CO)CC1,-14.83%
Cn1ccc(C(=O)NCc2csc(Br)c2)cc1=O,-12.19%
c1ccc(OCC2CCNC2)cc1 (stereo not given),1.991%
CN1CCN(CC2CNC2)CC1,-1.475%
Cn1c(SCCN2CCOCC2)nc2ccsc2c1=O,-8.411%
CC(CO)NS(=O)(=O)c1cc(N(C)C)ccc1Br (stereo not given),-16.01%
COc1ccc(NC(=O)N2CCOCC2)cc1F,-12.46%
C[C@@]1(O)CCN(CCn2cc(Cl)cn2)C[C@@H]1O,-2.758%
CN(Cc1cnc(N(C)C)nc1)Cc1ccccn1,-4.469%
CN1CCC(N2CCN(C(=O)c3cnc[nH]3)CC2)CC1,7.244%
CCNCC(=O)Nc1ccc(N2CCOCC2)cc1,-15.27%
CCn1ccnc1C1CCCN(CCC(N)=O)C1 (stereo not given),24%
CC(C)(C)OC(=O)Nc1cnsn1,-2.273%
COc1cccc(NC(=O)NCC2CCN(C)CC2)c1,-22.33%
CCNC(=O)c1cccn1CC,-15.2%
CCCn1c(SCC(=O)N2CCCCCC2)n[nH]c1=O,1.045%
Cc1csc(NC(=O)CCn2ccccc2=O)n1,-5.792%
CC(=O)c1csc(C(=O)N2CCCC2C(C)(C)O)c1 (stereo not given),-8.417%
NS(=O)(=O)c1ccc(OCC(F)(F)F)cc1,4.369%
O=S1(=O)CCCN1C1CCNCC1,-2.58%
CCOc1ccccc1OCCN1CC[S+]([O-])CC1,-1.083%
CC(=O)N1CCC(C(=O)Nc2cc(C)ccn2)CC1,5.332%
CN1CCN(c2ccnc(SCC(N)=O)n2)CC1,12.01%
Cc1ccc2cc(C(=O)N[C@@H](C)C(N)=O)ccc2n1,-3.875%
CC(N[C@H](CO)C(C)C)c1cncc(F)c1 (stereo not given in full),-4.941%
Cc1ccc(CN2CCNCC2CCO)o1 (stereo not given),-0.6359%
CCN1CCN(CCCOc2ccc(CO)cc2)CC1,12.42%
CC[C@@]1(O)CCN(c2ncnc3onc(C)c23)C[C@H]1O,-21.47%
O=C(CC(F)(F)F)NCc1ccc(F)cc1,2.634%
CCc1ncc(C(=O)NCCNC(=O)c2ccoc2)s1,-10.07%
CN1CCC=C(CCNC(=O)COc2ccccc2)C1,-5.293%
O[C@@]12CCNC[C@@H]1C2,2.624%
COCC(=O)NCc1cnn(Cc2ccccc2)c1,2.648%

The first 9 entries again:

- CCOC(=O)c1nn(CC)c2c1CNCC2 : 2.55%
- COCCc1nc(CC(C)N(C)C)n(CCO)n1 (stereo not given) : -7.99%
- COCC(=O)N1CCC(Nc2cncc(Br)c2)CC1 : 0.5239%
- Cc1nc[nH]c1CN1CCCOC(CN2CCCC2)C1 (stereo not given) : -4.729%
- CCn1nccc1CN1CCOCC2(CCOCC2)C1 : -10.26%
- Cc1ncsc1C(=O)NC1CCCCNC1=O (stereo not given) : 12.8%
- NCC(=O)N1CCCC(COc2ccc(F)cc2)C1 (stereo not given) : 3.058%
- CC(Sc1nnc(-c2ccccc2F)n1C)C(N)=O (stereo not given) : -0.9447%
- CCC1(C(=O)NCC2CCCNC2)CCCC1 (stereo not given) : -4.689%